From the supplement of paper PMC7666118
This is one part of the list.

Sequences of proteins named here, by UniProt entry; tags and fusion partners are left off. A change or cut given only in a name is not applied to a line headed by its entry.
UniProt Q9HA77: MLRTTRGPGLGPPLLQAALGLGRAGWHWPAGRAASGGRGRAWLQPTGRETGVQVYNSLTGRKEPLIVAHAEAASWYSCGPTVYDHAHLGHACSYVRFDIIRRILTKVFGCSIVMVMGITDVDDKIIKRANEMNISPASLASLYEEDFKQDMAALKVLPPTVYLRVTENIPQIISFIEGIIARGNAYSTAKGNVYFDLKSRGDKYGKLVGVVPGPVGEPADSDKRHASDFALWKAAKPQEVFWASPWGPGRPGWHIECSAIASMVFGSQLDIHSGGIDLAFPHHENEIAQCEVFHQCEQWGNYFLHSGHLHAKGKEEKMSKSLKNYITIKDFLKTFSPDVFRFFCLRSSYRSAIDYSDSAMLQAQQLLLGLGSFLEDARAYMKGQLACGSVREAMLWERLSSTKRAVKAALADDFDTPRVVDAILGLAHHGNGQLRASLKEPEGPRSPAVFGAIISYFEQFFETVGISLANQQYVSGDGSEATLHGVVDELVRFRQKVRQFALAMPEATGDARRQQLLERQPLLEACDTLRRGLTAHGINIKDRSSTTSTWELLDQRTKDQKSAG
UniProt P20248, whole entry: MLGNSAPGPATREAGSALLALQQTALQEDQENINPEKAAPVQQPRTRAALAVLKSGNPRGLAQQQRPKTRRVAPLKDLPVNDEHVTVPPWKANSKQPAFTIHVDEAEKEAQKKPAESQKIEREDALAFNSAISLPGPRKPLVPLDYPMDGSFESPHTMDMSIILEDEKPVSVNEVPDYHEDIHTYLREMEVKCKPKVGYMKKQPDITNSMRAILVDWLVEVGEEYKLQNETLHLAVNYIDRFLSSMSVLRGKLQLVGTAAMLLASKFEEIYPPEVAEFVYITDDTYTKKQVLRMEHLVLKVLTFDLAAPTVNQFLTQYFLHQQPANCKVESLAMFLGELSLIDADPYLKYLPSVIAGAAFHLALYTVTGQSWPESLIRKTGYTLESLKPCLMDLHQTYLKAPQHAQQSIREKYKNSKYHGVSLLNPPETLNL
UniProt Q86X55: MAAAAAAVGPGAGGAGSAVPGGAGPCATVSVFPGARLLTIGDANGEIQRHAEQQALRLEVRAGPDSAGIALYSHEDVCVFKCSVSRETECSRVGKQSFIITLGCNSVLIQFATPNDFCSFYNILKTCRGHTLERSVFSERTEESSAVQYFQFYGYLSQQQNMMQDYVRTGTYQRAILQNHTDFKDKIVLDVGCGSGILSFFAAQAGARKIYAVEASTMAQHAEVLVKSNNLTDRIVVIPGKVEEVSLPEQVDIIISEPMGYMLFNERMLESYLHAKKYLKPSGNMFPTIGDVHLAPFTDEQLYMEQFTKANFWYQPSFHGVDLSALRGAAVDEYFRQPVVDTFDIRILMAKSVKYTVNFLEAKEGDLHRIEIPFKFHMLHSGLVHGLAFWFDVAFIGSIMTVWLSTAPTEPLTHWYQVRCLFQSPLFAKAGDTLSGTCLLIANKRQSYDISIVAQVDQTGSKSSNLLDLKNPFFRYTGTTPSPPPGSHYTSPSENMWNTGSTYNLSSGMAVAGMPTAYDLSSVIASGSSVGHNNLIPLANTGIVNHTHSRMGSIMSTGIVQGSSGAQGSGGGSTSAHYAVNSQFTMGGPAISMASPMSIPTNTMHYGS
UniProt A2RUC4: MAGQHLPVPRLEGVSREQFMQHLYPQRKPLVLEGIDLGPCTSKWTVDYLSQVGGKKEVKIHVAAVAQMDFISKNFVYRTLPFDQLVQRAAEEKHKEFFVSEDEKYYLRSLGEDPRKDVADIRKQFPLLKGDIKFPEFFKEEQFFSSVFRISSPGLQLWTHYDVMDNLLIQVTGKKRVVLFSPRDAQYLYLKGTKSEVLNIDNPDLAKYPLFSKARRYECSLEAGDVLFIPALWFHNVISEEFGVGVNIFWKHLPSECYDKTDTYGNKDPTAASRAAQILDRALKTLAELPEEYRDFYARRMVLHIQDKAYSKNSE
UniProt Q96A57: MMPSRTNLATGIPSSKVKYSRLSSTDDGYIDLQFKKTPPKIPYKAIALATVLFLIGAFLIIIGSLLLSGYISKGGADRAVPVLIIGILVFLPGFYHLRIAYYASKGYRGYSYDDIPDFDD
UniProt Q9BUH6, whole entry: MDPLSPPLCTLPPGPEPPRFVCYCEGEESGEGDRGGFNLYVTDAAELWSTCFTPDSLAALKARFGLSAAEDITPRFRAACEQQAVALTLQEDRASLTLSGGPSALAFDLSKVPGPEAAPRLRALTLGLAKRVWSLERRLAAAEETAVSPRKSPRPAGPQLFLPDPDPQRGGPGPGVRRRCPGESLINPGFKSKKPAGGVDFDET
UniProt Q8WWC4: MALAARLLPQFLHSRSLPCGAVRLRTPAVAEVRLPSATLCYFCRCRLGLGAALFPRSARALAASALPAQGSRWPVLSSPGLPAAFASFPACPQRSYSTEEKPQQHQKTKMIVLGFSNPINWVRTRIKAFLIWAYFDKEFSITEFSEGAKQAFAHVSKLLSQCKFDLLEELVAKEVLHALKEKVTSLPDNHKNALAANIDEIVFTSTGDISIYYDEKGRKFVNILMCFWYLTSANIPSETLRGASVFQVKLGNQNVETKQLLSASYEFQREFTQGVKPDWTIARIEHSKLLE
UniProt Q9H993: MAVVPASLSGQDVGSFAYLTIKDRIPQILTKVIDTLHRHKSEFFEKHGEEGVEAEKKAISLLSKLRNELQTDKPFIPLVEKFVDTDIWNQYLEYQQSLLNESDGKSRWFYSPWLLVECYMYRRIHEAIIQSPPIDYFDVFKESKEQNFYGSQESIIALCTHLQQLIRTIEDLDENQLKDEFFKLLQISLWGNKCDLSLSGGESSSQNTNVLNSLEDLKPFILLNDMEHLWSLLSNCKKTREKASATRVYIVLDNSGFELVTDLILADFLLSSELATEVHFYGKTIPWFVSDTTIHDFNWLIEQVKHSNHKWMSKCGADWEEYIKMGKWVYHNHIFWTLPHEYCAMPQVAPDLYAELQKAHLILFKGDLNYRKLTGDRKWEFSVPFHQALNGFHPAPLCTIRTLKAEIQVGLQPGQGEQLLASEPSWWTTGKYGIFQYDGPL
UniProt Q96EX1: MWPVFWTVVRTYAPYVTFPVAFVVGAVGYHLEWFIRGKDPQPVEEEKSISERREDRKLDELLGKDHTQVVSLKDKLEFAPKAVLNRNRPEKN
UniProt Q9NWU2, whole entry: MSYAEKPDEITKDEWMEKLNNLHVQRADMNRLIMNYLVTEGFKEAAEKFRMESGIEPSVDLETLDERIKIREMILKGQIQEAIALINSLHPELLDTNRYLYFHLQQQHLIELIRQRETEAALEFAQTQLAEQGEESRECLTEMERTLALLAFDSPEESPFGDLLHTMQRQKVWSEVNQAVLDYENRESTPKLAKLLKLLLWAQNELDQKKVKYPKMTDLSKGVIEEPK
UniProt Q63HQ0: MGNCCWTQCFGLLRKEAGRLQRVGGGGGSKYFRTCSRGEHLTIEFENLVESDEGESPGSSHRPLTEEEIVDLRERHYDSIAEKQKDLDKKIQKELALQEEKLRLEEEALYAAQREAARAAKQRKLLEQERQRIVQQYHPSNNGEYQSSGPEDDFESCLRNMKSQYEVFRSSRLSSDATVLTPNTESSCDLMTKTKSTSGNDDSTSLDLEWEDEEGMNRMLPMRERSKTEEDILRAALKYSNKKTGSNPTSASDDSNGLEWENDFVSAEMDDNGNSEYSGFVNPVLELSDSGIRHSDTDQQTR
UniProt Q9H9S4: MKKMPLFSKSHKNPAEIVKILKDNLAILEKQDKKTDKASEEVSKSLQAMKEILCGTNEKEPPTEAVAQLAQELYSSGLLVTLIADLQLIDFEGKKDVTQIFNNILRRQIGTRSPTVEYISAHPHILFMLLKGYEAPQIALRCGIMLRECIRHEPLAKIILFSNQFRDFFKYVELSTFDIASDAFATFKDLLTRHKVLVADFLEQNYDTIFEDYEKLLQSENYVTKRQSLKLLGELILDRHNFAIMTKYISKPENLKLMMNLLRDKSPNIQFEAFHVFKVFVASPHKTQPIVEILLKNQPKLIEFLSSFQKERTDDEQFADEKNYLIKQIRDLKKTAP
UniProt Q3V6T2: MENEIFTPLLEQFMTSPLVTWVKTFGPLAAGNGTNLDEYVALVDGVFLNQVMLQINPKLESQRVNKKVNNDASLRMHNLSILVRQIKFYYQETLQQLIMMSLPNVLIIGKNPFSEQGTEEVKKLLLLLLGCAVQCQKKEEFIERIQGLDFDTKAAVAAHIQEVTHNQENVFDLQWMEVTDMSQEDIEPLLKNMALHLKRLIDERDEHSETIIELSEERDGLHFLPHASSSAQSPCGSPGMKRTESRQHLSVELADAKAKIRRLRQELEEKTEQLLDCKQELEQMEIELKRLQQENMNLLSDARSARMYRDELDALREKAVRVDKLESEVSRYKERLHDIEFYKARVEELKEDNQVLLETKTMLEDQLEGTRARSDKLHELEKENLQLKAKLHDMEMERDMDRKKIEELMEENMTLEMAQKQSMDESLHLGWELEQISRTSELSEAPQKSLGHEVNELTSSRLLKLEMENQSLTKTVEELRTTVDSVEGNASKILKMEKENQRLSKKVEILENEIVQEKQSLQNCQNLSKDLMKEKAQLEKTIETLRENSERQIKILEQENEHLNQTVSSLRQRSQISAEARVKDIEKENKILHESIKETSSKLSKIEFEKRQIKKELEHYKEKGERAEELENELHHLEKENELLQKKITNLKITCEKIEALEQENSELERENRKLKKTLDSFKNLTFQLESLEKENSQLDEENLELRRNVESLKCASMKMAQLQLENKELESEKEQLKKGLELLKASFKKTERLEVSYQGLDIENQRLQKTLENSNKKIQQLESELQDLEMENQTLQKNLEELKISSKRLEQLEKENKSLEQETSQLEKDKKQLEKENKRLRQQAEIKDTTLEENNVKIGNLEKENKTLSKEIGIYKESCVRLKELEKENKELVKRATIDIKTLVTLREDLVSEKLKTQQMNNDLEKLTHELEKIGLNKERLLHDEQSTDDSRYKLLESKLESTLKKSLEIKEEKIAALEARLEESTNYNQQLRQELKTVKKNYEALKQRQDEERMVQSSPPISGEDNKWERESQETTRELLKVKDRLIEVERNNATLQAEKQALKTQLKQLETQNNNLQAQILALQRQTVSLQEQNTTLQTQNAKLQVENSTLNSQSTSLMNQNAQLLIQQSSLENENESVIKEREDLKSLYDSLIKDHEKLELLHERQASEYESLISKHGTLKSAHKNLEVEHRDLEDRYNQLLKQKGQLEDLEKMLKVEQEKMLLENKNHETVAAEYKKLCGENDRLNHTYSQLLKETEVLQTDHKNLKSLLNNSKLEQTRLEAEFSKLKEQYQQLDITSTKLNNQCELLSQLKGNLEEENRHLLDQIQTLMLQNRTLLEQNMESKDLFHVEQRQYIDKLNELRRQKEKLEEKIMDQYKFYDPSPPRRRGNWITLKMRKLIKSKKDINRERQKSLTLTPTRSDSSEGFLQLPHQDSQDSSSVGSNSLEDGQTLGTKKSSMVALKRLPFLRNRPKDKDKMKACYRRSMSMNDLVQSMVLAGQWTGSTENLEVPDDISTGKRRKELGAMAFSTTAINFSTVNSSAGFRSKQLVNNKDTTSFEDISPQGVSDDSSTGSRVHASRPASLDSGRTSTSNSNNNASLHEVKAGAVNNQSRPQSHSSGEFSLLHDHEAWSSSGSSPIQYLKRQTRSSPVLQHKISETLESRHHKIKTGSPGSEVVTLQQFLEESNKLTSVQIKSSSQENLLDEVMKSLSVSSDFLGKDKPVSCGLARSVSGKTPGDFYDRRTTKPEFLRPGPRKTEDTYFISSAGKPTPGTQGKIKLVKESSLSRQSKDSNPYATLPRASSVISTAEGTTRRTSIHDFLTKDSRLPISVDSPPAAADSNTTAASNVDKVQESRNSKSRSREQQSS
UniProt Q9NS00: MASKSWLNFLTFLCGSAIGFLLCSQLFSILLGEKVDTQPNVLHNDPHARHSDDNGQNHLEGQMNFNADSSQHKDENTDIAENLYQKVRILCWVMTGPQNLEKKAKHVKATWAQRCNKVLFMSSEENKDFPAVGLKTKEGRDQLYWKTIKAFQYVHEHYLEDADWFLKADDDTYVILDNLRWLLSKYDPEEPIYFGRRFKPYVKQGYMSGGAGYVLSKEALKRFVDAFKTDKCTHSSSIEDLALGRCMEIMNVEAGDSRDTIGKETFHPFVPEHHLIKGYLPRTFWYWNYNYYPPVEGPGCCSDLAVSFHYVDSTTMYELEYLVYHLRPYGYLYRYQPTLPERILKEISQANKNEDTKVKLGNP
UniProt Q96F63: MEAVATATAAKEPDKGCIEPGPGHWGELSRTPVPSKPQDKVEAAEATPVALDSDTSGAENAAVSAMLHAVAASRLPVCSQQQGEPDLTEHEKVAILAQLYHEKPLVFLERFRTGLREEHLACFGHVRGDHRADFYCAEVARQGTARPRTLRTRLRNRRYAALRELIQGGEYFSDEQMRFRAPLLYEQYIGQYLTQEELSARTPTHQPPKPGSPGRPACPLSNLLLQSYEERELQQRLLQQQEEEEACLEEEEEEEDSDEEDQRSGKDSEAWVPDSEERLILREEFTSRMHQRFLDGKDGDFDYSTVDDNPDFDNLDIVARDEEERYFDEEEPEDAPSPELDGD

What follows are targets tested with COc1ccc(Cn2ccc3cc(C)c(C(=O)NO)cc32)cc1 (assay: dose-dependent thermal stabilisation call (2D-TPP, DLPTP, 10% FDR) (binary (1 = stabilised)); higher = stabilised by the compound). Conditions: system: HL-60 intact cells; concentration range 0.04-10 µM.
Protocol: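 2D thermal proteome profiling in intact HL-60 cells treated with BRD-3811 (0, 0.04, 0.29, 2, 10 uM) for 90 min at 37 C, then heated 3 min at one of 12 temperatures (42-63.9 C). Soluble protein was quantified by TMT10 MS. The value is the DLPTP call of the paper: dose-dependent thermal stabilisation over all temperatures at 10% FDR (F-test of a dose-response against a flat model); one experiment, one call per tested protein.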
CARS2 (UniProt Q9HA77) was tested, and the “dose-dependent thermal stabilisation call” value was inactive: 0.
CD2AP (UniProt Q9Y5K6) was tested, and the “dose-dependent thermal stabilisation call” value was inactive: 0.
For CCNA2 (UniProt P20248), the “dose-dependent thermal stabilisation call” value was inactive: 0.
With CALM1 (UniProt P0DP23) the “dose-dependent thermal stabilisation call” value was inactive: 0.
With CBARA1 (UniProt Q9BPX6) the “dose-dependent thermal stabilisation call” value was inactive: 0.
CAPN2 (UniProt P17655) was tested, and the “dose-dependent thermal stabilisation call” value was inactive: 0.
With CARM1 (UniProt Q86X55) the “dose-dependent thermal stabilisation call” value was inactive: 0.
With C2ORF60 (UniProt A2RUC4) the “dose-dependent thermal stabilisation call” value was inactive: 0.
For C20ORF30 (UniProt Q96A57), the “dose-dependent thermal stabilisation call” value was inactive: 0.
For C9ORF142 (UniProt Q9BUH6), the “dose-dependent thermal stabilisation call” value was inactive: 0.
With C2ORF47 (UniProt Q8WWC4) the “dose-dependent thermal stabilisation call” value was inactive: 0.
For CCDC132 (UniProt Q96JG6), the “dose-dependent thermal stabilisation call” value was inactive: 0.
For CACYBP (UniProt Q9HB71), the “dose-dependent thermal stabilisation call” value was inactive: 0.
CABIN1 (UniProt Q9Y6J0) was tested, and the “dose-dependent thermal stabilisation call” value was inactive: 0.
C6ORF211 (UniProt Q9H993) was tested, and the “dose-dependent thermal stabilisation call” value was inactive: 0.
In the case of C1ORF212 (UniProt Q96EX1), the “dose-dependent thermal stabilisation call” value was inactive: 0.
In the case of C4ORF14 (UniProt Q8NC60), the “dose-dependent thermal stabilisation call” value was inactive: 0.
For C20ORF11 (UniProt Q9NWU2), the “dose-dependent thermal stabilisation call” value was inactive: 0.
In the case of C1ORF198 (UniProt Q9H425), the “dose-dependent thermal stabilisation call” value was inactive: 0.
For C21ORF66 (UniProt Q9Y5B6), the “dose-dependent thermal stabilisation call” value was inactive: 0.
In the case of C2ORF15 (UniProt Q8WU43), the “dose-dependent thermal stabilisation call” value was inactive: 0.
In the case of C20ORF74 (UniProt Q2PPJ7), the “dose-dependent thermal stabilisation call” value was inactive: 0.
In the case of C2ORF44 (UniProt Q9H6R7), the “dose-dependent thermal stabilisation call” value was inactive: 0.
In the case of C3 (UniProt P01024), the “dose-dependent thermal stabilisation call” value was inactive: 0.
In the case of CD3EAP (UniProt O15446), the “dose-dependent thermal stabilisation call” value was inactive: 0.
With C4ORF16 (UniProt Q63HQ0) the “dose-dependent thermal stabilisation call” value was inactive: 0.
With CAB39L (UniProt Q9H9S4) the “dose-dependent thermal stabilisation call” value was inactive: 0.
C6ORF35 (UniProt Q9NWH2) was tested, and the “dose-dependent thermal stabilisation call” value was inactive: 0.
With CCDC88A (UniProt Q3V6T2) the “dose-dependent thermal stabilisation call” value was inactive: 0.
With CD47 (UniProt Q08722) the “dose-dependent thermal stabilisation call” value was inactive: 0.
C1GALT1 (UniProt Q9NS00) was tested, and the “dose-dependent thermal stabilisation call” value was inactive: 0.
With C1ORF71 (UniProt Q6PJW8) the “dose-dependent thermal stabilisation call” value was inactive: 0.
For CCT8 (UniProt P50990), the “dose-dependent thermal stabilisation call” value was inactive: 0.
CCDC97 (UniProt Q96F63) was tested, and the “dose-dependent thermal stabilisation call” value was inactive: 0.
In the case of C2ORF7 (UniProt Q9BSG0), the “dose-dependent thermal stabilisation call” value was inactive: 0.
In the case of C3ORF26 (UniProt Q9BQ75), the “dose-dependent thermal stabilisation call” value was inactive: 0.
